{"source": "PubChem BioAssay AID504834", "about": "(National Center for Advancing Translational Sciences (NCATS), 2011)", "note": "In all, about 320,000 compounds went through this assay and about 22,000 (6.9%) were called active. Inconclusive means that the source gave no clear call. Such entries were picked first, then a sample of the others. Calls follow the shape of the dose curve; as a rule, active = well fitted inhibition curve with a large enough effect; inconclusive = small, poorly fitted or top-dose-only effect, or another doubt; inactive = no such curve, though single readings can be large or run the other way. Potencies beside an inconclusive call are fits to weak or partial responses and may not hold up. % is scaled to controls: 0 for no effect and ±100 for the full control effect; potency is read from the fitted curve at half-maximal effect.", "data": [{"experiment": "Primary qHTS for delayed death inhibitors of the malarial parasite plastid, 96 hour incubation", "conditions": "P. falciparum luciferase reporter growth; series mostly up to 28.7 µM; activity change, negative = inhibition: at the top concentration", "in_short": "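Delayed-death screen, second-generation endpoint: infected erythrocytes, 2% hematocrit, 0.05% parasitemia final; 96 hours at 37 C, 5% CO2; luciferase detection reagent; luminescence decrease equals reduced growth.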", "values": [{"smiles": "Cc1ccc(-c2nnn(CC(=O)N(c3cccc(F)c3)C(C(=O)NC3CCCC3)c3ccncc3)n2)o1", "note": "(stereo not drawn)", "Potency": "inconclusive: 9.28 µM [inhibitor, single point]"}, {"smiles": "O=C(CCC(=O)N1CCc2ccccc2C1)N1CCN(S(=O)(=O)c2ccccc2)CC1", "Potency": "inconclusive: 8.28 µM [inhibitor, partial curve, poor fit]"}, {"smiles": "CCCCCCCCOC1OC(CO)C(O)C(O)C1NC(C)=O", "note": "(stereo not drawn)", "Potency": "inconclusive: 0.0657 µM [inhibitor, full curve, poor fit]"}, {"smiles": "N=C(N)c1ccc(N)cc1", "Potency": "inconclusive: 3.7 µM [inhibitor, single point]"}, {"smiles": "O=[N+]([O-])c1ccc(-c2csc(NN=C3CCCC3)n2)cc1", "Potency": "inconclusive: 11.7 µM [inhibitor, single point]"}, {"smiles": "COc1ccc2cc(-c3ccsc3)ncc2c1", "activity change, negative = inhibition": "inactive: 167%"}, {"smiles": "O=C(Nc1sc2c(c1C(=O)NCC1CCCO1)CCCC2)c1cccs1", "note": "(stereo not drawn)", "Potency": "inconclusive: 5.86 µM [inhibitor, single point]"}, {"smiles": "CC(C)C(NC(=O)c1c(F)cccc1F)C(=O)NCC(c1ccccc1)N(C)C", "note": "(stereo not drawn)", "Potency": "inconclusive: 11.7 µM [inhibitor, single point]"}, {"smiles": "O=C(CN1CCN(c2cccc(Cl)c2)CC1)N1CCCC1", "Potency": "inconclusive: 8.28 µM [inhibitor, single point]"}, {"smiles": "CCOc1ccc(OCC(=O)N(CCC2=CCCCC2)c2c(N)n(Cc3ccccc3)c(=O)[nH]c2=O)cc1", "Potency": "inconclusive: 18.5 µM [inhibitor, single point]"}, {"smiles": "NC(=O)CSc1nnc(Cc2ccc3c(c2)OCO3)o1", "Potency": "inconclusive: 4.65 µM [inhibitor, partial curve]"}, {"smiles": "Cc1ccc(NC(=O)CN(C)C(=O)c2cn(Cc3ccccc3)nc2-c2cccnc2)cc1", "Potency": "inconclusive: 10.4 µM [inhibitor, partial curve, poor fit]"}, {"smiles": "CC(C)n1ncc2c(C(=O)Nc3cccc(S(=O)(=O)N(C)C)c3)cc(C3CC3)nc21", "Potency": "inconclusive: 11.7 µM [inhibitor, single point]"}, {"smiles": "COc1cc(/C=C/C(=O)OCC(=O)N2CC(=O)Nc3ccccc32)ccc1O", "Potency": "inconclusive: 0.0586 µM [inhibitor, full curve, poor fit]"}, {"smiles": "Cc1c(C(N)=O)sc(N)c1C(=O)OC(C)C", "activity change, negative = inhibition": "inactive: 9.51%"}, {"smiles": "CCN(CCCNC(=O)CCNC(=O)Cn1ccc2ccccc2c1=O)c1ccccc1", "Potency": "inconclusive: 13.1 µM [inhibitor, single point]"}, {"smiles": "C1=C(c2ccco2)N2CCN=C2S1", "Potency": "inconclusive: 13.1 µM [inhibitor, partial curve, poor fit]"}, {"smiles": "Cc1cccc(C(=O)Nc2cc(NC(=O)c3cccs3)ccc2C)c1", "activity change, negative = inhibition": "inactive: -18%"}, {"smiles": "CCCN(CCC)CCc1cccc2c1CC(=O)N2", "activity change, negative = inhibition": "inactive: -10.6%"}, {"smiles": "CCc1nc2ccccc2n(CCOCCOCCn2c(=O)c(CC)nc3ccccc32)c1=O", "Potency": "inconclusive: 4.65 µM [inhibitor, partial curve]"}, {"smiles": "COC(=O)C1=C(c2ccc(F)cc2OCc2ccccc2)C[C@@H]2CC[C@H]1N2C(=O)NCc1ccccc1Br", "Potency": "active: 1.31 µM"}, {"smiles": "COCCCNC(=S)NC1CC2CCCC(C1)N2Cc1cccs1", "note": "(stereo not drawn)", "Potency": "inconclusive: 3.7 µM [inhibitor, single point]"}, {"smiles": "COc1ccccc1NC(=O)c1cc(Br)ccc1Cl", "activity change, negative = inhibition": "inactive: 1.41%"}, {"smiles": "O=c1cc(N2CCc3ccccc3C2)[nH]c(=O)n1-c1ccc(Cl)cc1", "activity change, negative = inhibition": "inactive: -19.4%"}, {"smiles": "CC(=O)OC1CC[C@@]2(C)C(CCC3C2CC(=O)[C@@]2(C)C3CC3CC(C)=CC(=O)C32)C1", "note": "(stereo partly drawn)", "activity change, negative = inhibition": "inactive: -26.5%"}, {"smiles": "COc1cccc2[nH]c3c(N4CCCC(C)C4)ncnc3c12", "note": "(stereo not drawn)", "Potency": "inconclusive: 18.5 µM [inhibitor, single point]"}, {"smiles": "O=C(/C=C/c1ccco1)N(Cc1cccc(Br)c1)C1CCS(=O)(=O)C1", "note": "(stereo not drawn)", "Potency": "inconclusive: 0.294 µM [inhibitor, full curve, poor fit]"}, {"smiles": "COc1ccc(N2CCN(C(CNS(C)(=O)=O)c3ccco3)CC2)cc1", "note": "(stereo not drawn)", "activity change, negative = inhibition": "inactive: 104%"}, {"smiles": "O=S(=O)(Nc1cccc2c1CCCC2)c1ccc(Cl)cc1", "Potency": "inconclusive: 10.4 µM [inhibitor, partial curve, poor fit]"}, {"smiles": "O=C(CCn1cncn1)N1CCCC(N2CCN(c3cccc(C(F)(F)F)c3)CC2)C1", "note": "(stereo not drawn)", "Potency": "inconclusive: 2.33 µM [inhibitor, full curve, poor fit]"}, {"smiles": "Cc1ccc(C(=O)N/N=C/c2nc3ccccc3n2C)cc1", "Potency": "inconclusive: 18.5 µM [inhibitor, single point]"}, {"smiles": "CCCC[N+]12CCC(CC1)C(C(O)(c1ccccc1)c1ccccc1)C2", "note": "(stereo not drawn)", "Potency": "active: 10.4 µM"}, {"smiles": "CCOc1ccc2nc(NC(=O)/C=C/c3ccc4c(c3)OCO4)sc2c1", "activity change, negative = inhibition": "inactive: 174%"}, {"smiles": "C/C(=N\\Nc1nc(C)cc(-c2ccccc2)n1)c1cccc(N)c1", "Potency": "inconclusive: 18.5 µM [inhibitor, single point]"}, {"smiles": "Cc1cccc(OCc2nc(C#N)c(NCCN(C)C)o2)c1", "Potency": "inconclusive: 0.522 µM [inhibitor, full curve, poor fit]"}, {"smiles": "Cc1ccnc(NC(=O)CCS(=O)(=O)c2ccccc2)c1", "activity change, negative = inhibition": "inactive: -24.9%"}, {"smiles": "Cc1c(N=C2C=C(Br)C(=O)C(Br)=C2)c(=O)n(-c2ccccc2)n1C", "Potency": "inconclusive: 1.31 µM [inhibitor, partial curve, poor fit]"}, {"smiles": "O=C(Nc1ccc(Cl)cc1Cl)c1ccc2c(=O)n3c(nc2c1)CCC3", "activity change, negative = inhibition": "inactive: 84.5%"}, {"smiles": "Oc1[nH]c2ccccc2c1C1=NCCCC1", "Potency": "inconclusive: 10.4 µM [inhibitor, partial curve, poor fit]"}, {"smiles": "CC(Sc1nc(C(C)(C)C)cc(-c2ccccc2)c1C#N)C(=O)Nc1ccccc1", "note": "(stereo not drawn)", "Potency": "inconclusive: 18.5 µM [inhibitor, single point]"}, {"smiles": "O=C(NCCc1ccccc1)N1c2ccccc2Sc2ccccc21", "Potency": "inconclusive: 14.7 µM [inhibitor, single point]"}, {"smiles": "Cc1ccc(C)c(-n2ccnc2SCC(=O)Nc2cccc(S(=O)(=O)NC3=NCCC3)c2)c1", "Potency": "inconclusive: 10.4 µM [inhibitor, partial curve, poor fit]"}, {"smiles": "O=C(Nc1ccc(Cl)cn1)C1CCCN1S(=O)(=O)c1cccc2ccccc12", "note": "(stereo not drawn)", "Potency": "inconclusive: 14.7 µM [inhibitor, partial curve, poor fit]"}]}]}
